In patent US6001802A, “Platelet-derived growth factor analogues” (Trigen Limited, priority 1993, dated 1999):
Part of at least one peptide drawing is inferred or uncertain, most often the ends. Where no end group is shown, it is not given here.

By UniProt entry, the sequences of proteins in these tests, tags left out. Residues count along the entry.
UniProt P01127, 82-190 limits assumed: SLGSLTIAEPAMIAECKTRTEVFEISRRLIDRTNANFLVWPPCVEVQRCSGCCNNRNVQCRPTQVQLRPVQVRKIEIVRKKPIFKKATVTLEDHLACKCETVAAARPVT

Key:
[1] = tested on: murine fibroblast cell line Swiss 3T3.A31; experiment: [3H]-thymidine uptake assay, effect of PDGF peptides on fibroblast cells in culture; assay type: cell-based; conditions: FIG. 1
[2] = tested on: murine fibroblast cell line 3T3.A31; experiment: 125I-PDGF-BB binding inhibition assay on 3T3 cells (peptides); conditions: at the concentrations tested; FIG. 2A
[3] = tested on: human smooth muscle cells; experiment: Effect of anti-PDGF peptide IgG on 125I-PDGF-BB binding to human smooth muscle cells; conditions: IgG fraction from rabbits immunised with the peptide; FIG. 6
[4] = tested on: corresponding immunising peptide; experiment: ELISA titre of polyclonal antisera against immunising peptide; assay type: binding; conditions: rabbits immunised with peptide linked to thyroglobulin; FIGS. 3A, 3B
native PDGF-BB = target: T1, native PDGF-BB (Homo sapiens, UniProt P01127); experiment: ELISA titration of anti-Tg-GP4 antiserum vs PDGF-BB; assay type: binding; conditions: one of the rabbits immunised with GP4; FIG. 4
T1 construct: both chains undergo proteolytic cleavage at the N-termini during maturation; The B chain is also processed at the C-terminal end

[5] = tested on: human recombinant fibroblast growth factor (FGF); experiment: ELISA titration of anti-Tg-GP4 antiserum vs FGF; assay type: binding; conditions: one of the rabbits immunised with GP4; FIG. 4
PDGF-BB (native) = target: T2, PDGF-BB (native) (Homo sapiens, UniProt P01127); experiment: Western blot of antibodies vs native PDGF; assay type: binding; conditions: polyclonal antisera
T2 construct: both chains undergo proteolytic cleavage at the N-termini during maturation; The B chain is also processed at the C-terminal end

Ac-ISRRLIDRTNANFL [GP2, Ac-^25 I-S-R-R-L-I-D-R-T-N-A-N-F-L^38]
stimulation of thymidine uptake (mitogenic effect) [1]: low stimulatory effect

Ac-ISRRLIDRTNANFLC [GP4, Ac-^25 I-S-R-R-L-I-D-R-T-N-A-N-F-L^38 -C]
inhibition of binding of radiolabelled PDGF-BB to 3T3 cells [2]: modest inhibition of binding | inhibition of binding of radio-labelled PDGF-BB to human smooth muscle cells by IgG fraction [3]: effective in inhibiting the binding | antibodies to the corresponding immunising peptide by ELISA [4]: high titre antibodies | reactivity of antibodies with native PDGF-BB (native PDGF-BB): reactive with native PDGF-BB | cross reactivity of antibodies with FGF [5]: no cross reactivity | Western immunoblot reactivity of antibodies produced by peptide with native PDGF (PDGF-BB (native)): reacted with the native PDGF

Ac-RKIEIVRKKC [GP8, Ac-^73 R-K-I-E-I-V-R-K-K^81 -C]
stimulation of thymidine uptake (mitogenic effect) [1]: not as stimulatory as GP4 | inhibition of binding of radiolabelled PDGF-BB to 3T3 cells [2]: modest inhibition of binding | antibodies to the corresponding immunising peptide by ELISA [4]: high titre antibodies

RKIEIVRKKPIFKKATV [GP21a, ^73 R-K-I-E-I-V-R-K-K-P-I-F-K-K-A-T-V^89]
inhibition of binding of radio-labelled PDGF-BB to human smooth muscle cells by IgG fraction [3]: effective in inhibiting the binding | Western immunoblot reactivity of antibodies produced by peptide with native PDGF (PDGF-BB (native)): reacted with the native PDGF
